Screening data, single-dose tests

Chains of the proteins cited; added tags and fusions are not shown. Residues count along the entry.
UniProt A4I591, 1-473: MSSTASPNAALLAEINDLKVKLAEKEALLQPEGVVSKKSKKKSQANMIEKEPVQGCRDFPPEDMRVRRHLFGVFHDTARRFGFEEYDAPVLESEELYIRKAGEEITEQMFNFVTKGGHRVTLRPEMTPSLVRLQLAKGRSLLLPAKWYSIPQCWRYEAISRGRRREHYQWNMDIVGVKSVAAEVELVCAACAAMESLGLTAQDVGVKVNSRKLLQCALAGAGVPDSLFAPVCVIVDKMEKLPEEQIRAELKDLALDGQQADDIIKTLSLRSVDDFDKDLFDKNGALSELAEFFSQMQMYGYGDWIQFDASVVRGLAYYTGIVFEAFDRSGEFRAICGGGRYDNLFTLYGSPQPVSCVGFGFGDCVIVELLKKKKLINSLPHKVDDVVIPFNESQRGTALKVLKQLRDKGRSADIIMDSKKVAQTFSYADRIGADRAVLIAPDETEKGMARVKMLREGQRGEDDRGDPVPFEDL
UniProt Q4DA54, 1-478: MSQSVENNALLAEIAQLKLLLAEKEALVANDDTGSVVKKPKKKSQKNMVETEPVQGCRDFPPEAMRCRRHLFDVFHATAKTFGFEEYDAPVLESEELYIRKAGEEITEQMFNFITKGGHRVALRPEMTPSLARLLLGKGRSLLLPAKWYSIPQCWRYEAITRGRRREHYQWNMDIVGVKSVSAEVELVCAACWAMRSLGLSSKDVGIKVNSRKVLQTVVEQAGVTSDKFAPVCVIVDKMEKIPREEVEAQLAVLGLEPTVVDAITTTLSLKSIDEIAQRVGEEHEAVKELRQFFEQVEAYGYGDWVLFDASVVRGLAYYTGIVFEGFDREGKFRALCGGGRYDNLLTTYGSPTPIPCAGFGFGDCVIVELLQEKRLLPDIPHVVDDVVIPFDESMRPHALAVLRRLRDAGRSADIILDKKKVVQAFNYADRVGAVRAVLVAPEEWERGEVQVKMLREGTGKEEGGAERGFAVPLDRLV
UniProt Q8IDJ8, 1-583: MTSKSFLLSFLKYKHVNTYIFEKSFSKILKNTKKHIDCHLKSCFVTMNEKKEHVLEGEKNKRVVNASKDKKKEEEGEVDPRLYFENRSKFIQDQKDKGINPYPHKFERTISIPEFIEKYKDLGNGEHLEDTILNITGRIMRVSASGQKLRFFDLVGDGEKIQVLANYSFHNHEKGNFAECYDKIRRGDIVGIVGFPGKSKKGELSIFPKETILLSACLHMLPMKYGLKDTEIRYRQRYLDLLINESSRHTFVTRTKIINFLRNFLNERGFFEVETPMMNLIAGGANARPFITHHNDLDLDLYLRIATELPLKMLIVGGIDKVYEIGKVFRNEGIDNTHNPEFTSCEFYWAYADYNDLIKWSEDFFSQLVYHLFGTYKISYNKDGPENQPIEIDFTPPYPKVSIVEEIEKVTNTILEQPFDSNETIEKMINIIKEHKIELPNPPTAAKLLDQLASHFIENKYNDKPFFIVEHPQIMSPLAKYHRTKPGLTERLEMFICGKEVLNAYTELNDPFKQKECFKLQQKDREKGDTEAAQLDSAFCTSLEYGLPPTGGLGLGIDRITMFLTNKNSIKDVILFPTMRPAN

The values are deposited in ChEMBL (CHEMBL3988442, “University of Dundee, Small-Polar-MMV Screening Library” (2021)).

LiHisRS: 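Enzyme assay of histidyl-tRNA synthetase; the read-out is not stated. Target: Histidine-tRNA ligase, Leishmania infantum (UniProt A4I591). Concentration: 30 µM. Direction is inferred from retests: higher values go with stronger inhibition. The assay is labelled LdHisRS but filed under L. infantum. Size under these conditions: about 69,000 compounds, about 410 of them at 50% or above in at least one test.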
TcHisRS: 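Enzyme assay of histidyl-tRNA synthetase; the read-out is not stated. Target: Histidine-tRNA ligase, Trypanosoma cruzi CL Brener (UniProt Q4DA54). Concentration: 30 µM. The record gives no direction; compounds that gave an IC50 in retests scored well above the rest, so higher reads as stronger inhibition. About 69,000 compounds were tested under these conditions; 0.045% (about 31) showed 50% or more at least once.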
PfKRS1: 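Lysine-tRNA ligase, Plasmodium falciparum 3D7 (UniProt Q8IDJ8). Enzyme assay of the cytosolic lysyl-tRNA synthetase in 384-well plates, read by luminescence. Concentration: 30 µM. Higher reads as stronger inhibition, judged from the few compounds that gave an IC50. Size under these conditions: about 69,000 compounds, about 49 of them at 50% or above in at least one test.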
Leishmania in macrophages: 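Cell assay of Leishmania donovani living inside macrophages; the read-out is not stated. Compounds at 30 µM. Direction is inferred from retests: higher values go with stronger inhibition. Size under these conditions: about 69,000 compounds, about 1,000 of them at 50% or above in at least one test.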

Each number is a percent effect as filed.
The controls that fix the scale are not given in the record; negative values are as filed.
The compounds are a random part of those screened.

With O=S(=O)(NCCc1ccccc1C(F)(F)F)N1CCOCC1 the screen gave LiHisRS: 11.7%; TcHisRS: 7.071%; PfKRS1: -2.182%; Leishmania in macrophages: 26.1%.
With CC(C)(C)c1cn(CC2CCCN(c3cnc4ccccc4n3)C2)nn1 (stereo not drawn) the screen gave LiHisRS: 17.95%; TcHisRS: 5.056%; PfKRS1: 4.912%; Leishmania in macrophages: 23.01%.
With Cc1cc(N2CCN(Cc3ccc(-c4cc[nH]n4)o3)CC2)cc(C)n1 the screen gave LiHisRS: 16.5%; TcHisRS: 2.075%; PfKRS1: -3.515%; Leishmania in macrophages: 31.61%.
With CC(C)n1nc2c(cc1=O)CN(CC1CCCCO1)CC2 (stereo not drawn) the screen gave LiHisRS: 35.62%; TcHisRS: 11.58%; PfKRS1: 11.81%; Leishmania in macrophages: -19.55%.
With CC(=O)N1CCC2(CC1)CC(C(C)C)=NO2 the screen gave LiHisRS: -2.759%; TcHisRS: 2.959%; PfKRS1: 3.338%; Leishmania in macrophages: -2.802%.
With CN(Cc1ccncc1)CC(c1cccs1)N1CCOCC1 (stereo not drawn) the screen gave LiHisRS: 24.62%; TcHisRS: 0.3831%; PfKRS1: -11.24%; Leishmania in macrophages: 30.45%.
With COc1cccn(CC(=O)N2CCCC3(CCCCC3)C2)c1=O the screen gave LiHisRS: 109.8%; TcHisRS: 76.24%; PfKRS1: 9.008%; Leishmania in macrophages: 18.54%.
With Cc1cccc(OCCN2CCN(Cc3noc(C)n3)CC2)c1 the screen gave LiHisRS: 20.18%; TcHisRS: 4.046%; PfKRS1: 0.7012%; Leishmania in macrophages: 14.25%.
With Cn1c(Cn2ccnc2)nnc1C1CCN(Cc2cccnc2N)CC1 the screen gave LiHisRS: 16.35%; TcHisRS: 1.626%; PfKRS1: 6.954%; Leishmania in macrophages: -15.51%.
With CSCC[C@@H](CO)n1ccnc1-c1ccncc1 the screen gave LiHisRS: 10.32%; TcHisRS: 5.882%; PfKRS1: 5.74%; Leishmania in macrophages: 7.871%.
With CCN(CC)c1ccc(C(=O)N2C[C@@H]3CC[C@H](C2)N(CCOC)C3)cc1 the screen gave LiHisRS: 18.75%; TcHisRS: 5.063%; PfKRS1: -0.2376%.
With Cn1nc2c(cc1=O)CN(CCOc1ccccc1C#N)CC2 the screen gave LiHisRS: 37.5%; TcHisRS: 2.484%; PfKRS1: 4.532%; Leishmania in macrophages: 1.14%.
With NC(=O)CC1CCN(C(=O)NCc2ccc(-c3ccn[nH]3)cc2)CC1 the screen gave LiHisRS: 4.464%; TcHisRS: 4.624%; PfKRS1: 1.573%; Leishmania in macrophages: 3.41%.
With CCC(NC(=O)NCc1nncn1CC)c1ccc(OC)cc1 (stereo not drawn) the screen gave LiHisRS: -48.33%; TcHisRS: 12.5%; PfKRS1: 2.219%; Leishmania in macrophages: 6.208%.
With Cc1nnsc1C(=O)N1CCN(C(=O)C2CCC2)[C@@H]2CS(=O)(=O)C[C@@H]21 the screen gave LiHisRS: 5%; TcHisRS: 4.545%; PfKRS1: 3.6%.
With O=C(O)C(F)(F)F.[H][C@@]12CCN(Cc3ccco3)[C@]1([H])CC[C@H](COCC(=O)N(C)C)O2 the screen gave Leishmania in macrophages: 5.467%.
With COc1nn(C)c2c1CCCN(C(=O)c1cc[nH]n1)C2 the screen gave LiHisRS: -10.53%; TcHisRS: -11.6%; PfKRS1: 6.206%; Leishmania in macrophages: -3.001%.
With CN(C)Cc1cncc2c1CCN(C1CCOCC1)C2 the screen gave LiHisRS: 16.98%; TcHisRS: 7.778%; PfKRS1: 3.623%.
With CCOc1ccc(-c2ccnc(COc3ccccc3)n2)cc1C(=O)O the screen gave LiHisRS: 19.44%; TcHisRS: 0%; PfKRS1: 4.769%; Leishmania in macrophages: 7.995%.
With Cc1c(CN2CCc3nc4sccc4c(=O)n3CC2)cnn1C.Cl the screen gave Leishmania in macrophages: 39.63%.
With O=C(O)C(F)(F)F.[H][C@]12CCN(c3ncccn3)[C@@]1([H])CC[C@H](COCc1csc(C)n1)O2 the screen gave Leishmania in macrophages: -8.032%.
With O=C(O)c1cc2c(nc1-c1ccsc1)CCN(C1CCOC1)CC2 (stereo not drawn) the screen gave LiHisRS: 8.621%; TcHisRS: 2.532%; PfKRS1: 3.456%.
With CN1CCC(c2[nH]ncc2S(C)(=O)=O)CC1 the screen gave LiHisRS: 5.634%; TcHisRS: 0.7692%; PfKRS1: 1.322%; Leishmania in macrophages: 10.44%.
With O=C(O)C(F)(F)F.O=C(O)C(F)(F)F.[H][C@@]12COC[C@@H](CC(=O)N3CCOCC3)[C@]1([H])CN(Cc1cccnc1)C2 the screen gave Leishmania in macrophages: 32.65%.
With O=C1NC(c2cccnc2)=NC12CCN(CCCc1ccccc1)CC2 the screen gave LiHisRS: 19.67%; TcHisRS: 7.2%; PfKRS1: -0.0348%; Leishmania in macrophages: -4.495%.
With Cc1noc(C(C)N2CCN(CCc3ccncc3)CC2)n1 (stereo not drawn) the screen gave LiHisRS: 18.33%; TcHisRS: -0.9804%; PfKRS1: 2.97%; Leishmania in macrophages: -7.524%.
With NC(=O)CSc1ccccc1NC(=O)CC1C=CCC1 (stereo not drawn) the screen gave LiHisRS: 18.09%; TcHisRS: 8.04%; PfKRS1: 1.893%; Leishmania in macrophages: 1.684%.
With COC(=O)C(C)(C)NC(=O)c1cc2sc(N(C)C)nc2s1 the screen gave LiHisRS: 13.22%; TcHisRS: 5.102%; PfKRS1: 3.739%; Leishmania in macrophages: 16.34%.
With O=C(Cc1cccc(F)c1)NCCNCc1ccc2c(c1)CCO2 the screen gave LiHisRS: 21.92%; TcHisRS: 3.817%; PfKRS1: 11.12%; Leishmania in macrophages: 29.87%.
With Cc1noc(C)c1CN1CCN(CC2CC2)c2ncccc2C1.O=C(O)C(F)(F)F.O=C(O)C(F)(F)F the screen gave Leishmania in macrophages: 23.02%.